Measured values as given in patent publication US6627631B1, “Pharmaceutical composition containing desoxypeganine for the treatment of alcoholism” (priority 1999, dated 2003).

Tested on: ethanol-preferring rats (strain going back to the Finnish AA rat line)
Experiment: Voluntary alcohol consumption of genetic ethanol-preferring rats (free choice of 10% ethanol or water)
Type: in vivo
Conditions: female ethanol-preferring rats
Experimental: Influence of deoxypeganine HCl on the voluntary alcohol consumption of genetic ethanol-preferring rats.
The experimental animals were in each case 6 female rats of a strain which goes back to the Finnish AA rat line. The animals of this inbred strain prefer 10% alcohol as a drinking liquid if pure water is additionally offered to them (free choice).
The animals were kept individually in type 3 Makrolon cages at a room temperature of 23° C. and air changes nine times per hour. Dry feed granules (Altromin 1311; meal to which vitamins, minerals, amino acids and trace elements are added; manufacturer: Altromin
Spezialfutterwerke GmbH, Lage), drinking water and ethanol solution (10% v/v) were available to them in unrestricted amounts only during the dark phase from 20.00 hours to 08.00 hours, namely in special vessels which guarantee loss-free feeding and drinking. The amounts consumed were determined gravimetrically; the amounts of drink automatically and continuously with the aid of twelve weighing cells. […]
Table: Influence of deoxypeganine HCl on the ingestive behavior of female ethanol-prefering rats (n=6). The values determined during the three-day preliminary period in each case are in round brackets.

Compound: Cl.c1ccc2c(c1)CN1CCCC1=N2 [deoxypeganine HCl]
- Body weight, BW (n=6, 15 mg/kg orally): 215 ± 6.2 g
- Body weight, BW (n=6, 30 mg/kg orally): 213 ± 4.9 g
